Laboratory results reported in article PMC11351588.
No constants are given. Whether binding was seen depends on the method and setting. In cells and extracts the contact can be indirect. Some results given as binding are weak or reduced against the parent protein; the word gives no strength.

Chains of the proteins cited; added tags and fusions are not shown.
UniProt Q13616: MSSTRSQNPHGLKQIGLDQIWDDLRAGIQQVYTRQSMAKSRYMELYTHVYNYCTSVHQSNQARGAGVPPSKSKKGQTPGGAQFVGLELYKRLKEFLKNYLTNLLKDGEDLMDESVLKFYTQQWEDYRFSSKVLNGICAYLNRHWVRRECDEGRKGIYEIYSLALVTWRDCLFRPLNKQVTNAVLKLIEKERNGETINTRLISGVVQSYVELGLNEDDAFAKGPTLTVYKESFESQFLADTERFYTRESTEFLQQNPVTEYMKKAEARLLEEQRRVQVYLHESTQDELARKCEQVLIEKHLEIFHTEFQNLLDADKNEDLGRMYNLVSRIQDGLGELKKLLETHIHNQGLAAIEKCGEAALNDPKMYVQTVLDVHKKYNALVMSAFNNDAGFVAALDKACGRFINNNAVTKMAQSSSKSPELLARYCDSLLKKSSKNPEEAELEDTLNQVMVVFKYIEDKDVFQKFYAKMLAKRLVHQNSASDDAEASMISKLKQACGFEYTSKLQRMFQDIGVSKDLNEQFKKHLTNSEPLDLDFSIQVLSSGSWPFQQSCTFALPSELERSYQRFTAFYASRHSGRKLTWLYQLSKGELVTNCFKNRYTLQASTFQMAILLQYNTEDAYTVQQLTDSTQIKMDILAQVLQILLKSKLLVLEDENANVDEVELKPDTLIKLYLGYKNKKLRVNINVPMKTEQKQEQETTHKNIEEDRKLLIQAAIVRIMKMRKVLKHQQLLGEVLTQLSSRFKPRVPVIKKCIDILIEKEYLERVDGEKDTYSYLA

Biological target: Myc-Cullin1-full (UniProt Q13616)
Assay: co-IP; HEK-293T co-transfected with tagged constructs; lysis in 25 mM Tris-HCl pH 8.0, 150 mM NaCl, 1% Nonidet P-40, 1 mM EDTA; IP with tag antibody and Protein G-Sepharose at 4 °C, immunoblot; cells of the MDM2 homodimer experiment treated with 20 µM MG132 for 16 h

binding: binds
Substance: V5-MDM2 (from UniProt Q00987 1-491)
